Experimental data published in PMC12120770.
These are yes or no findings as the source states them, for the method shown. Some entries that bind do so weakly or less than the wild type.

Molecular target: T1, SoBfr1, heme-free subunit of the Shewanella oneidensis hetero-bacterioferritin SoBfr12 (Shewanella oneidensis) (UniProt Q8EHV0)
T1 sequence: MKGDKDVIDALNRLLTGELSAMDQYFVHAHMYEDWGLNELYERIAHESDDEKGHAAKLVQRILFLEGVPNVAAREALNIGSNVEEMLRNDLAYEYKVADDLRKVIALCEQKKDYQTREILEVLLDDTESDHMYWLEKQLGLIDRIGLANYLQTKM
Experiment: cryo-EM structure; single-particle cryo-EM of purified SoBfr12 (1.7 mg mL^-1), subunits co-expressed in E. coli; refined with C1 symmetry, 2.62 Å; both purified

B1: SoBfr2, heme-binding subunit of the Shewanella oneidensis hetero-bacterioferritin SoBfr12 (protein, UniProt Q8EHV1 1-157)
chain: MKGHPKVVGQLNRVLTCELTAINQYFLHARMFKHWGLEKLNHVEYKKSIEDMKHADKLIERVLFLEGLPNLQQLEKLRIGEHAQEMLDCDLAMVQEQLTLLRDAITLCEAEQDYVSRDLLEDILEDEEEHLDWLESQRELIGLTGIQNYLQSQISES
binding: binds
